PubChem BioAssay AID1259405, NCATS, 2018

Screen: 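Silenced genes that increase secreted GFP made by CHO cells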 (primary screen)
System: Chinese hamster CHO-K1 ovary cells with stable secreted eGFP expression
Reagent: single siRNA against mouse genes, 0.8 pmol siRNA per well (2 µl of 400 nM stock)
Timing: 3 days
Detection: 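Per-well intracellular GFP measured by laser scanning cytometry, plus viability from ATP luminescence, each relative to plate median of non-targeting control wells, in %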
Reading the numbers: GFP, % of control: higher = more GFP per well, higher productivity; viability (ATP), % of control: higher = more viable cells (more ATP)
Call rule: 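Called active when intracellular GFP, relative to negative control, is at or above 120%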
Shown is a random part of about 50,000 deposited reagents. Of all reagents, about 4,000 (8%) got an active call. 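Mouse siRNA library applied to hamster cells; one well for each siRNA.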 Reagents against one gene are numbered here.

gene symbol | reagent | GFP, % of control | viability (ATP), % of control | call
Cyfip2 | 1 | 78.9 | 78.4 | inactive
Cyfip2 | 2 | 72.5 | 76.5 | inactive
Cyfip2 | 3 | 60.4 | 52.4 | inactive
Bcorl1 | 1 | 28.9 | 29 | inactive
Bcorl1 | 2 | 39.1 | 82 | inactive
Bcorl1 | 3 | 119 | 152 | inactive
Erf | 1 | 117 | 66.7 | inactive
Erf | 2 | 93.1 | 71.2 | inactive
Erf | 3 | 106 | 118 | inactive
Dip2b | 1 | 79.7 | 71.3 | inactive
Dip2b | 2 | 74.9 | 60.8 | inactive
Dip2b | 3 | 89 | 80.2 | inactive
Chst7 | 1 | 57.2 | 63.1 | inactive
Chst7 | 2 | 47.1 | 76.8 | inactive
Chst7 | 3 | 94 | 103 | inactive
Khdc1a | 1 | 86 | 95.2 | inactive
Khdc1a | 2 | 39.7 | 40.2 | inactive
Khdc1a | 3 | 81.4 | 92.6 | inactive
Kcne1 | 1 | 66.3 | 76 | inactive
Kcne1 | 2 | 76.3 | 78.1 | inactive
Kcne1 | 3 | 125 | 75.4 | active
Rfx6 | 1 | 90.3 | 71.6 | inactive
Rfx6 | 2 | 75.3 | 47.7 | inactive
Rfx6 | 3 | 72.1 | 85.2 | inactive
Pitpnc1 | 1 | 61.8 | 64 | inactive
Pitpnc1 | 2 | 110 | 78.3 | inactive
Pitpnc1 | 3 | 90.5 | 101 | inactive
Dmac2 | 1 | 160 | 70.7 | active
Dmac2 | 2 | 53.7 | 31.1 | inactive
Dmac2 | 3 | 114 | 67.5 | inactive
Med15 | 1 | 83.4 | 77.6 | inactive
Med15 | 2 | 89.6 | 51.2 | inactive
Med15 | 3 | 104 | 138 | inactive
Shld2 | 1 | 109 | 69.2 | inactive
Shld2 | 2 | 130 | 84.6 | active
Shld2 | 3 | 106 | 82.6 | inactive
Tex56 | 1 | 64.9 | 78.3 | inactive
Tex56 | 2 | 59.9 | 84.8 | inactive
Tex56 | 3 | 95.4 | 113 | inactive
Slc5a5 | 1 | 76.4 | 128 | inactive
Slc5a5 | 2 | 45.3 | 41.8 | inactive
Slc5a5 | 3 | 117 | 93.5 | inactive
Wsb2 | 1 | 73.3 | 69.4 | inactive
Wsb2 | 2 | 64 | 45.1 | inactive
Wsb2 | 3 | 56.8 | 76.3 | inactive
Rab11fip5 | 1 | 65 | 87.5 | inactive
Rab11fip5 | 2 | 61.7 | 64.8 | inactive
Rab11fip5 | 3 | 110 | 98.5 | inactive
Pot1a | 1 | 71.1 | 66.1 | inactive
Pot1a | 2 | 87.2 | 78.7 | inactive
Pot1a | 3 | 70.2 | 62.5 | inactive
Treml4 | 1 | 85.8 | 84.1 | inactive
Treml4 | 2 | 67.7 | 72.1 | inactive
Treml4 | 3 | 41.9 | 46.8 | inactive
Npas2 | 1 | 83.2 | 108 | inactive
Npas2 | 2 | 65.6 | 51.1 | inactive
Npas2 | 3 | 61.4 | 87.6 | inactive
Cox4i2 | 1 | 142 | 101 | active
Cox4i2 | 2 | 108 | 71.3 | inactive
Cox4i2 | 3 | 75.6 | 55.6 | inactive
Foxd4 | 1 | 25.6 | 36.9 | inactive
Foxd4 | 2 | 73.2 | 83.3 | inactive
Afg3l1 | 1 | 61.7 | 60.6 | inactive
Afg3l1 | 2 | 37.2 | 42.6 | inactive
Afg3l1 | 3 | 98.9 | 61.6 | inactive
Aldh1l2 | 1 | 84 | 71.8 | inactive
Aldh1l2 | 2 | 73.6 | 62.9 | inactive
Aldh1l2 | 3 | 79.2 | 81.6 | inactive
Frg2f1 | 1 | 64.4 | 44.3 | inactive
Frg2f1 | 2 | 147 | 129 | active
Frg2f1 | 3 | 36 | 56.9 | inactive
Rffl | 1 | 126 | 80.8 | active
Rffl | 2 | 77.7 | 102 | inactive
Rffl | 3 | 34.2 | 51.6 | inactive
Nucleolin | 1 | 94.4 | 70 | inactive
Nucleolin | 2 | 73.6 | 55.9 | inactive
Nucleolin | 3 | 89.2 | 82.7 | inactive
Hyi | 1 | 77.5 | 75.2 | inactive
Hyi | 2 | 92.1 | 84 | inactive
Hyi | 3 | 112 | 131 | inactive
Itgb7 | 1 | 56.8 | 65.2 | inactive
Itgb7 | 2 | 80.3 | 73.7 | inactive
Itgb7 | 3 | 40.5 | 15.4 | inactive
Clcf1 | 1 | 69.8 | 62.8 | inactive
Clcf1 | 2 | 58.8 | 66.3 | inactive
Clcf1 | 3 | 79.2 | 45.1 | inactive

Called active (from the list above):
gene symbol | reagent | GFP, % of control | viability (ATP), % of control | call
Kcne1 | 3 | 125 | 75.4 | active
Dmac2 | 1 | 160 | 70.7 | active
Shld2 | 2 | 130 | 84.6 | active
Cox4i2 | 1 | 142 | 101 | active
Frg2f1 | 2 | 147 | 129 | active
Rffl | 1 | 126 | 80.8 | active
